The test system of this test is Escherichia coli BW25113. The experiment in a line: plate-normalized OD600 growth (mean of duplicates) (OD600 (normalized)); higher = more growth (less inhibition). To be noted: 10 µM. The method, then: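 E. coli BW25113 in LB (100 µl, 96-well, no shaking) was exposed to 10 µM of each compound from a ~30,000-member library and grown at 37°C for 24 h or 15°C for 48 h, in duplicate. Growth was read as OD600 and the duplicate ODs were normalized across screening plates to correct plate-to-plate variation. Hits were >3σ below the mean OD600 at 15°C and <2σ below the mean at 37°C.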

Whole data set: some 2,300 compounds, median “plate-normalized OD600 growth (mean of duplicates)” near 0.29, cut for the lowest 2% near 0.22. Some of the results follow.

With `OCCCc1cccc(C(F)(F)F)c1`, the “plate-normalized OD600 growth” value runs as follows: (temperature: 15°C, 48 h) 0.242; (temperature: 37°C, 24 h) 0.586.
With `CC(=O)C1=C(Nc2ccc(C)cc2)CC(C)(O)C(C(C)=O)C1c1ccc(F)cc1` (centres undefined), the “plate-normalized OD600 growth” value (temperature: 15°C, 48 h) is 0.208 and the “plate-normalized OD600 growth” value (temperature: 37°C, 24 h) stood at 0.598.
In the same order, the values of `O=C(COc1ccccc1[N+](=O)[O-])Nc1ccccn1` are 0.24 and 0.619.
As for `C=C(C)C(=O)Oc1c2ccccc2cc2ccccc12`, the “plate-normalized OD600 growth” value (temperature: 15°C, 48 h) came to 0.269 and the “plate-normalized OD600 growth” value (temperature: 37°C, 24 h) stood at 0.62.
Consider `CC(=O)OC1CC[C@]2(C)C3=C(C(O)C[C@H]2C1(C)C)[C@]1(C)CC[C@H]([C@H](C)CCCC(C)C)[C@@]1(C)CC3=O` (some centres undefined), for which the “plate-normalized OD600 growth” value is, setting by setting: (temperature: 15°C, 48 h) 0.265; (temperature: 37°C, 24 h) 0.589.
Take `O=C(O)CCCC(=O)Nc1ccccn1`: the “plate-normalized OD600 growth” value reads like this: (temperature: 15°C, 48 h) 0.247; (temperature: 37°C, 24 h) 0.614.
Take `CCCCCSN1C(=O)c2ccccc2C1=O`: the “plate-normalized OD600 growth” value (temperature: 15°C, 48 h) came out at 0.262 and the “plate-normalized OD600 growth” value (temperature: 37°C, 24 h) stood at 0.637.
In the same order, the values of `c1ccc([S+]2c3ccccc3Nc3ccccc32)cc1` are 0.237 and 0.612.
In the same order, the values of `C=CCn1cc(Cc2cn(CC=C)nc2C)c(C)n1` are 0.248 and 0.616.
`COc1ccc(OC)c(CNC(=O)Cc2cccs2)c1`: the “plate-normalized OD600 growth” value (temperature: 15°C, 48 h) worked out at 0.247 and the “plate-normalized OD600 growth” value (temperature: 37°C, 24 h) amounted to 0.616.
Turning to `COc1c(N)cccc1F`, the “plate-normalized OD600 growth” value runs as follows: (temperature: 15°C, 48 h) 0.244; (temperature: 37°C, 24 h) 0.627.
In the same order, the values of `Cc1cc(C)c(C(=O)CSc2nc3ccccc3[nH]2)c(C)c1` are 0.213 and 0.626.
In the same order, the values of `N#Cc1cc(C#N)c(SCC(=O)N(c2ccccc2)c2ccccc2)nc1N` are 0.243 and 0.615.
In the same order, the values of `N/C(=N\OC(=O)C12CC3CC(CC(C3)C1)C2)c1ccccc1` are 0.26 and 0.614.
With `O=[N+]([O-])c1ccc(SC2=NCCN2)c(Cl)c1`, the “plate-normalized OD600 growth” value by setting is: (temperature: 15°C, 48 h) 0.249; (temperature: 37°C, 24 h) 0.607.
As for `O=C1CC(NCc2ccco2)C(=O)N1c1ccc(OC(F)(F)Cl)cc1` (centres undefined), the “plate-normalized OD600 growth” value runs as follows: (temperature: 15°C, 48 h) 0.268; (temperature: 37°C, 24 h) 0.642.
For the compound `Cc1ccc(Sc2c(-c3ccccc3)nc3ncccn23)cc1`, the “plate-normalized OD600 growth” value runs as follows: (temperature: 15°C, 48 h) 0.254; (temperature: 37°C, 24 h) 0.647.
With `O=C1c2ccccc2C(=O)c2c(NCCc3ccc(O)cc3)ccc(NCCc3ccc(O)cc3)c21`, the “plate-normalized OD600 growth” value stood at 0.24 (temperature: 15°C, 48 h) and 0.646 (temperature: 37°C, 24 h).
In the same order, the values of `CN(C)c1ccc(/C=C2\SC(=S)N(CC(=O)O)C2=O)cc1Br` are 0.259 and 0.613.
Take `COCc1cc(C)nc2sc(C(=O)OC)c(N)c12`: the “plate-normalized OD600 growth” value by setting is: (temperature: 15°C, 48 h) 0.243; (temperature: 37°C, 24 h) 0.626.
In the same order, the values of `CC(Oc1ccccc1)C(=O)Nc1ccc(Cl)cc1` (centres undefined) are 0.222 and 0.64.
In the same order, the values of `CN1C(=O)N(C)C2(c3ccccc3)Nn3c(s/c(=C/c4ccc([N+](=O)[O-])cc4)c3=O)=NC12c1ccccc1` (centres undefined) are 0.243 and 0.609.
In the same order, the values of `Cc1cccc(C(=O)OCC(=O)c2ccccc2)c1O` are 0.25 and 0.611.
Take `Cc1ccc(NS(=O)(=O)c2ccc(N3C(=O)c4ccccc4C3=O)cc2)cc1C`: the “plate-normalized OD600 growth” value by setting is: (temperature: 15°C, 48 h) 0.25; (temperature: 37°C, 24 h) 0.629.
On to `FC(F)(F)c1cccc(CSc2n[nH]c(=S)s2)c1`, for which the “plate-normalized OD600 growth” value (temperature: 15°C, 48 h) was determined as 0.256 and the “plate-normalized OD600 growth” value (temperature: 37°C, 24 h) is 0.622.
In the same order, the values of `N#CCCN(CC1CCCO1)C(=S)Nc1cc(C(F)(F)F)cc(C(F)(F)F)c1` (centres undefined) are 0.24 and 0.629.
As to `Cc1ccccc1COC(=O)c1ccc(-c2nnn(Cc3ccccc3C)n2)cc1`, the “plate-normalized OD600 growth” value runs as follows: (temperature: 15°C, 48 h) 0.244; (temperature: 37°C, 24 h) 0.611.
With `CCc1c(C)nn2cn[n+](Cc3ccccc3)c2c1[O-]`, the “plate-normalized OD600 growth” value was found to be 0.268 (temperature: 15°C, 48 h) and 0.629 (temperature: 37°C, 24 h).
In the case of `COc1cccc(Nc2ncnc3scc(-c4ccc(Cl)cc4)c23)c1`, the “plate-normalized OD600 growth” value was 0.229 (temperature: 15°C, 48 h) and 0.625 (temperature: 37°C, 24 h).
Turning to `N/C(=N\OC(=O)c1ccno1)c1ccc(C(F)(F)F)cc1`, the “plate-normalized OD600 growth” value turned out to be 0.253 (temperature: 15°C, 48 h) and 0.612 (temperature: 37°C, 24 h).
In the same order, the values of `O=C1CSC(c2ccc(C(F)(F)F)cc2)N1c1ccc(S(=O)(=O)Nc2ncccn2)cc1` (centres undefined) are 0.253 and 0.638.
In the same order, the values of `N/C(=N/OC(=O)C(Cl)Cl)c1cccc(Cl)c1Cl` are 0.233 and 0.601.

The values are drawn from the supplement of paper PMC4371806.
